Out of some 310,000 compounds screened, about 17,000 (5.5%) were called active. The inconclusive results got no clear call from the source; some entries with a clear call stand among them for comparison. Calls follow the shape of the dose curve; as a rule, active = well fitted inhibition curve with a large enough effect; inconclusive = small, poorly fitted or top-dose-only effect, or effect the other way; inactive = no such curve, though single readings can be large or run the other way. Potencies of inconclusive entries are doubtful fits and often do not repeat.
The molecules below were run against Nuclear receptor ROR-gamma (Mus musculus) (UniProt P51450) (assay: qHTS for inhibitors of ROR gamma transcriptional activity). Conditions: Drosophila S2 Gal4-RORgamma UAS-luciferase reporter, 20 h; activity change, negative = inhibition: at 53.6 µM (top of the series).
Method in brief: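 Luminescence from a UAS-regulated Photinus luciferase reporter in stably transfected Drosophila Schneider cells is measured; decreased signal marks ROR gamma inhibition. Fusion expression is induced by 700 uM copper sulfate for 20 hr.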
% is scaled to controls: 0 for no effect and ±100 for the full control effect; potency is read from the fitted curve at half-maximal effect.
Also: nearly all actives have a fitted effect of over 60% in size.

By UniProt entry, the sequences of proteins in these tests, tags left out. Where a name states a change or a piece, a line headed by the entry shows the natural chain unless it says otherwise.
UniProt P51450: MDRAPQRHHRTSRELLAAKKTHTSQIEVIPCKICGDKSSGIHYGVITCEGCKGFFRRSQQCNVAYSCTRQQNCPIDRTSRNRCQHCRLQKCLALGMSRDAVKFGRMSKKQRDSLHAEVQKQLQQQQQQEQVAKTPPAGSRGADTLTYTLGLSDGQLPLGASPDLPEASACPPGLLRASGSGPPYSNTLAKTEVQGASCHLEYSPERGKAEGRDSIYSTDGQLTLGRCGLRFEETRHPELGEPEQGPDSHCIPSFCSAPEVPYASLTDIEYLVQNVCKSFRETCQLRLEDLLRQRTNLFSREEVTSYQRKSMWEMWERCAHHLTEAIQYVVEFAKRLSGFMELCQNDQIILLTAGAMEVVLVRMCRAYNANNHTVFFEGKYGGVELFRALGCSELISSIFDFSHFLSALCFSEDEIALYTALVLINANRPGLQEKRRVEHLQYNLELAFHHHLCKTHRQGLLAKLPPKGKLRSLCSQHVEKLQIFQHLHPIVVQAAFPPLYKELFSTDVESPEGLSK

Row | Compound | Potency | activity change, negative = inhibition
1 | S=c1[nH]nc(COc2ccccc2)n1Cc1ccccc1 | active: 1.58 µM | 
2 | O=C(Cn1nnc(-c2cc(C(F)(F)F)cc(C(F)(F)F)c2)n1)NNC(=S)Nc1ccc(Cl)cc1 | inconclusive: 22.4 µM [inhibitor, single point] | 
3 | Cc1ccc(CNCC(O)(c2ccc(F)cc2)c2ccc(F)cc2)cc1 | inconclusive: 12.6 µM [activator, single point] | 
4 | COc1ccc(C(=O)CC(=O)C(=O)Nc2cc([N+](=O)[O-])ccc2OC)cc1 | inconclusive: 3.16 µM [inhibitor, single point] | 
5 | CCOc1ccc(C(=O)Nc2ccc(S(=O)(=O)N3CCN(C)CC3)cc2)cc1 | inconclusive: 35.5 µM [activator, single point] | 
6 | COc1cccc(SCc2noc(C(=O)NC(C)C)c2C(=O)O)c1 | inconclusive: 35.5 µM [inhibitor, single point] | 
7 | Cc1ccc(S(=O)(=O)/C=C/C#N)cc1 | active: 1.12 µM | 
8 | Cc1ccc(F)cc1NC(=S)NCCc1ccccc1 | inconclusive: 1.12 µM [inhibitor, single point] | 
9 | Cc1ccc(NC(=O)CSc2nnc(CSc3nc(C)cc(C)n3)n2Cc2ccco2)c(C)c1 |  | inactive: 7.78% [at 0.365 µM]
10 | COC(=O)C1=C(O)/C(=C\c2ccc(CNS(=O)(=O)c3ccc(Cl)cc3)o2)N=C1C | inconclusive: 8.91 µM [inhibitor, partial curve, poor fit] | 
11 | CCN(c1ccccc1)c1ncnc2c1cnn2-c1ccccc1 | inconclusive: 6.31 µM [activator, partial curve] | 
12 | CCOC(=O)c1c(-c2ccccc2)csc1NC(=O)CSc1nc(C)cc(C)n1 | inconclusive: 35.5 µM [activator, single point] | 
13 | CCc1nc2ccc(C(=O)NCCc3ccco3)cc2nc1CC |  | inactive: 0%
14 | C=C1C(=O)OC2CC1C(OC(C)=O)CC(C)=CCCC(C)=CCC[C@@]2(C)O (stereo partly specified) | active: 5.62 µM | 
15 | N=c1c2c(-c3ccccc3)c(-c3ccccc3)oc2ncn1CCCN1CCOCC1 | inconclusive: 1 µM [activator, single point] | 
16 | CN1c2ccccc2C(C)(C)C12C=Nc1c(cc(N3CCOCC3)c3ccccc13)O2 (stereo unspecified) | inconclusive: 22.4 µM [inhibitor, single point] | 
17 | COc1ccc(/C=C/C(=O)O)cc1S(=O)(=O)NC1CCS(=O)(=O)C1 (stereo unspecified) |  | inactive: -2.17%
18 | CC(C)N(C(=S)Nc1cccc(C(F)(F)F)c1)C(C)c1ccccn1 (stereo unspecified) | inconclusive: 10 µM [inhibitor, partial curve, poor fit] | 
19 | COc1ccccc1CNC(=O)CCCNC(=O)Cn1cnc2sc(C)c(C)c2c1=O |  | inactive: 0.115%
20 | O=C(O)c1ccc(NC2=C(N3CCOCC3)C(=O)c3ccccc3C2=O)cc1 |  | inactive: 13.6%
21 | COc1ccc(-c2ccc(C3C4C=CCCC4(C)C(=O)N3Cc3ccccc3)c(F)c2)cc1OC (stereo unspecified) | inconclusive: 11.2 µM [activator, partial curve, poor fit] | 
22 | O=[N+]([O-])c1ccc2nc(SCc3cn4ccccc4n3)[nH]c2c1 | inconclusive: 35.5 µM [inhibitor, single point] | 
23 | Cc1cccc(NC(=S)N2CCN(S(=O)(=O)c3ccccc3)CC2)c1 | inconclusive: 5.01 µM [inhibitor, partial curve] | 
24 | COc1cc(CN2CCN(CC3CC3)CC2CCO)cc(OC)c1 (stereo unspecified) |  | inactive: 5%

Row | Compound | Potency | activity change, negative = inhibition
25 | COC(=O)CN1C(C)=Nc2ccc(C)cc2C1c1ccccc1 (stereo unspecified) |  | inactive: 0.0195%
26 | O=C(CSc1ccccc1Cl)c1ccco1 |  | inactive: 13.8%
27 | Cc1cc[n+](CC(=O)c2ccc3c(c2)OCCO3)cc1 |  | inactive: -8.78%
28 | COc1ccc(C2/C=C\CN(C(=O)c3ccccc3)[C@H](Cc3ccccc3)C(=O)N2Cc2ccc(F)cc2)cc1 (stereo partly specified) | inconclusive: 7.94 µM [inhibitor, partial curve] | 
29 | CCOC(=O)CCCNC(=O)COC(=O)CCC(=O)c1ccc(F)cc1 |  | inactive: 4.5%
30 | COc1ccc(C(=O)N/N=C/c2ccc(N3CCOCC3)o2)cc1OC | inconclusive: 35.5 µM [inhibitor, single point] | 
31 | COc1ccc(C)cc1-n1nnnc1SCC(=O)Nc1cccnc1Cl | inconclusive: 12.6 µM [activator, partial curve] | 
32 | CC[C@@]1([C@@H]2O[C@@H]([C@H]3O[C@@](O)(CO)[C@H](C)C[C@@H]3C)C[C@@H]2C)CC[C@H]([C@]2(C)CC[C@]3(C[C@H](O)[C@@H](C)[C@@H]([C@@H](C)[C@@H](OC)C(C)C(=O)O)O3)O2)O1 (stereo partly specified) | inconclusive: 12.6 µM [activator, single point] | 
33 | O=C(CNC(=O)c1ccc(Br)cc1)N/N=C/c1cccnc1 |  | inactive: 1.74%
34 | COCCn1c(C)cc(C(=O)COC(=O)c2n[nH]c3ccccc23)c1C | inconclusive: 15.8 µM [inhibitor, single point] | 
35 | COc1cccc([C@@H]2Oc3ccc(Br)cc3C(=O)[C@H]2OC(=O)Nc2ccc(OC(F)F)cc2)c1 | inconclusive: 15.8 µM [inhibitor, single point] | 
36 | CCN(CC)C(=O)CSCc1cnn(-c2ccccc2)c1-n1cccc1 |  | inactive: 31.9%
37 | CCOC(=O)C1=NN(C(=O)COc2ccccc2)C(O)(c2ccc(Br)cc2)C1 (stereo unspecified) | active: 4.47 µM | 
38 | CC(=O)N(C(C)=O)c1nc2nc(C)cc(C)n2n1 | inconclusive: 0.0501 µM [inhibitor, full curve, poor fit] | 
39 | CC[C@@H]1C=C(C)C[C@H](C)C[C@H](OC)[C@H]2O[C@@](O)(C(=O)C(=O)N3CCCC[C@H]3C(=O)O[C@H](/C(C)=C/[C@@H]3CC[C@@H](O)[C@H](OC)C3)[C@H](C)[C@@H](O)CC1=O)[C@H](C)C[C@@H]2OC | inconclusive: 12.6 µM [activator, single point] | 
40 | NNc1nc2c(-c3cccc(C(F)(F)F)c3)nnn2c2ccccc12 | inconclusive: 35.5 µM [inhibitor, single point] | 
41 | COc1cc(NC(C)CCc2ccccc2)cc(OC)c1OC (stereo unspecified) |  | inactive: -0.128%
42 | Cc1nn2c(Nc3ccccc3)c3c(nc2c1-c1ccccc1)CCC3 | active: 2.82 µM | 
43 | O=C(NC(=S)N1CCCC1)c1ccc(Cl)cc1Cl | active: 0.891 µM | 
44 | O=C(Cn1ncn2c(cc3ccccc32)c1=O)NCCc1cccs1 |  | inactive: -0.547%
45 | COc1ccc(-n2c(N)c(C(=O)NCC3CCCO3)c3nc4ccccc4nc32)c(OC)c1 (stereo unspecified) |  | inactive: 27.1%
46 | O=[N+]([O-])c1cc(C(F)(F)F)ccc1Sc1ccc2ccccc2n1 |  | inactive: -38.9%
47 | CSc1cccc(NC(=S)N(CCCN2CCCC(C)C2)Cc2cccs2)c1 (stereo unspecified) | active: 11.2 µM | 
48 | O=C(Cc1noc2ccccc12)Nc1ccc(Cl)cc1 | inconclusive: 7.08 µM [activator, partial curve] | 

Row | Compound | Potency | activity change, negative = inhibition
49 | CC(=O)N(C1=C(Cl)C(=O)c2ccccc2C1=O)c1ccc(C(=O)O)cc1 | inconclusive: 28.2 µM [inhibitor, single point] | 
50 | Cc1ccc(S(=O)(=O)/N=C2/C=C(Sc3ncn[nH]3)C(=O)c3ccccc32)c(C)c1 | active: 11.2 µM | 
51 | CCN(CC)S(=O)(=O)c1cccc(C(=O)N/N=C/c2ccc([N+](=O)[O-])o2)c1 | active: 10 µM | 
52 | CS(=O)(=O)N1CCN(c2ccc(C(=O)NC3C4CC5CC(C4)CC3C5)cc2[N+](=O)[O-])CC1 (stereo unspecified) | inconclusive: 15.8 µM [activator, single point] | 
53 | CC(=O)Oc1cc(C)cc2oc(=O)cc(-c3ccccc3)c12 | inconclusive: 22.4 µM [activator, single point] | 
54 | Cc1ccc(C2=NN(C(=S)Nc3ccccc3)C(c3ccco3)C2)cc1 (stereo unspecified) | inconclusive: 28.2 µM [inhibitor, single point] | 
55 | Brc1cc2c(cc1/C=N/Nc1nc(N3CCOCC3)nc(N3CCOCC3)n1)OCO2 |  | inactive: 1.63%
56 | CC(C)(C)NC(=O)C(=O)N/N=C/c1ccc(Br)cc1 |  | inactive: -7.18%
57 | O=C(NC1CCCCC1)C(c1ccc(F)cc1)N(C(=O)c1csnn1)C1CCCC1 (stereo unspecified) |  | inactive: -25.7%
58 | COc1cc(NC(=O)CS(=O)(=O)c2ccccc2)cc(OC)c1OC | inconclusive: 0.112 µM [activator, full curve] | 
59 | O=S(=O)(Nc1nc2ccccc2[nH]1)c1ccc2ccccc2c1 | inconclusive: 2.24 µM [inhibitor, single point] | 
60 | CCOC(=O)C1CCN(C(=O)c2cc(C)n(C(C)(C)C)n2)CC1 |  | inactive: 3%
61 | COc1cccc2cc(C(=O)NCCN3CCOCC3)oc12 |  | inactive: -3.85%
62 | Cc1ccc(N=c2ssnc2Cl)cc1 | active: 12.6 µM | 
63 | CC[n+]1c(-c2ccccc2)csc1Nc1c(C)n(C)n(-c2ccccc2)c1=O | inconclusive: 15.8 µM [activator, single point] | 
64 | CCCNC1=C(N(C(C)=O)c2cccc(F)c2)C(=O)c2ccccc2C1=O | inconclusive: 15.8 µM [inhibitor, single point] | 
65 | O=c1c2ccccc2cnn1Cc1n[nH]c(=S)n1-c1ccc(F)cc1 | inconclusive: 17.8 µM [inhibitor, single point] | 
66 | COc1cccc(C(=O)Nc2ccc3ccccc3c2)c1 | inconclusive: 0.251 µM [activator, single point] | 
67 | COc1ccccc1-c1nnc(NC(=O)c2ccc(S(=O)(=O)N3CCCC3)cc2)o1 | active: 0.708 µM | 
68 | CCC(C)C1NC(=S)N(Cc2ccccc2)C1=O (stereo unspecified) | active: 10 µM | 
69 | COc1ccc(C(=O)Nc2cc(-c3ccc(C)cc3)no2)cc1 | active: 3.16 µM | 
70 | COC(=O)c1cn(CC(=O)Nc2ccc(OC)cc2)c2ccccc12 |  | inactive: -1.12% [at 1.91 µM]
71 | C=CCn1c(O)c(N=NC(=O)c2ccc3c(c2)OCO3)c2ccccc21 |  | inactive: -1.77%

Shown tab-delimited: entries from further up.
Row	Compound	Potency	activity change, negative = inhibition
69	COc1ccc(C(=O)Nc2cc(-c3ccc(C)cc3)no2)cc1	active: 3.16 µM	
70	COC(=O)c1cn(CC(=O)Nc2ccc(OC)cc2)c2ccccc12		inactive: -1.12% [at 1.91 µM]

— PubChem BioAssay AID2551 (National Center for Advancing Translational Sciences (NCATS), 2010)
